PubChem BioAssay AID1159578 | Peter MacCallum Cancer Centre, 2015
Here is an unselected part of about 18,000 reagents. Over the whole deposit, about 1,030 (5.7%) got an active call. 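Inactive calls also include pools with fewer than 3300 nuclei, whose migration was not assessed.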 The raw values are shown without normalisation.

Test: 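Genome-wide hunt for genes controlling movement of lymphatic endothelial cells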 (primary screen)
Cells: human lymphatic endothelial cells
Reagents: siRNA pool against human genes, 40 nM
Duration: 48 h after transfection
Detection: 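High-content imaging of dye-stained cells in a scratch assay measures filled wound area and nuclei per well; duplicate means given as ratio to mock and robust z-score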
Direction: migration robust z-score: higher = faster migration into the scratch; migration relative to mock: higher = more scratch area covered than mock; nuclei per well: higher = more cells in the well
Hit rule: 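Migration changed when robust z exceeds 2 or falls below -2 and mean nuclei number is at least 3300; otherwise not called changed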
Meaning of the calls: active = migration changed; inactive = no migration change, or too few cells

The opening 3 entries, to show the layout:
Gene	migration robust z-score	migration class with cell-count check	migration relative to mock	nuclei per well, duplicate mean	Outcome
CFHR5	0.25	migration z between -2 and 2; enough cells	0.95	4506	inactive
ADCY1	1.33	migration z between -2 and 2; enough cells	1.06	5856	inactive
ALKBH6	-0.08	migration z between -2 and 2; enough cells	0.86	5470	inactive

Results, repeating the preview:
Gene	migration robust z-score	migration class with cell-count check	migration relative to mock	nuclei per well, duplicate mean	Outcome
CFHR5	0.25	migration z between -2 and 2; enough cells	0.95	4506	inactive
ADCY1	1.33	migration z between -2 and 2; enough cells	1.06	5856	inactive
ALKBH6	-0.08	migration z between -2 and 2; enough cells	0.86	5470	inactive
DORIP1	0.1	migration z between -2 and 2; enough cells	0.92	5796	inactive
PTMA	-5.27	under 3300 nuclei; migration not judged	-0.21	1192	inactive
ROCK1	-0.2	migration z between -2 and 2; enough cells	0.76	5504	inactive
ZNF385C	-1.06	migration z between -2 and 2; enough cells	0.61	5499	inactive
PYGO1	0.47	migration z between -2 and 2; enough cells	1	5446	inactive
COXFA4	0.55	migration z between -2 and 2; enough cells	0.91	5379	inactive
FAM8A1	0.52	migration z between -2 and 2; enough cells	1.02	5974	inactive
GTF2I	-0.62	migration z between -2 and 2; enough cells	0.73	6418	inactive
KSR2	-0.03	migration z between -2 and 2; enough cells	0.8	4430	inactive
ACP7	-0.39	migration z between -2 and 2; enough cells	0.73	5611	inactive
SEMA6D	0.84	migration z between -2 and 2; enough cells	1.1	6438	inactive
LCNL1	-0.76	migration z between -2 and 2; enough cells	0.69	4960	inactive
CHMP3	-0.01	migration z between -2 and 2; enough cells	0.88	7087	inactive
RAB8B	-0.2	migration z between -2 and 2; enough cells	0.84	6234	inactive
PSMC5	-1.56	migration z between -2 and 2; enough cells	0.51	4580	inactive
HCK	0.02	migration z between -2 and 2; enough cells	0.81	5308	inactive
NAGPA	-0.6	migration z between -2 and 2; enough cells	0.69	5638	inactive
DPEP2	-0.29	migration z between -2 and 2; enough cells	0.75	5094	inactive
AACS	0.16	migration z between -2 and 2; enough cells	0.84	6201	inactive
DOCK8-AS1	1.06	migration z between -2 and 2; enough cells	1.16	7073	inactive
CPPED1	0.08	migration z between -2 and 2; enough cells	0.82	6292	inactive
SLC15A2	-0.03	migration z between -2 and 2; enough cells	0.88	6625	inactive
LINC01559	-0.39	migration z between -2 and 2; enough cells	0.78	5480	inactive
ADGRG1	0.39	migration z between -2 and 2; enough cells	0.88	7730	inactive
CHFR	-0.77	migration z between -2 and 2; enough cells	0.66	7369	inactive
ATP6V0D2	-0.26	migration z between -2 and 2; enough cells	0.76	5096	inactive
MAP3K14	-0.76	migration z between -2 and 2; enough cells	0.66	4815	inactive
KCNC2	0.31	migration z between -2 and 2; enough cells	0.86	5263	inactive
ICMT	0.36	migration z between -2 and 2; enough cells	0.88	3840	inactive
AADAC	-0.7	migration z between -2 and 2; enough cells	0.67	5634	inactive
EFNB3	0.68	migration z between -2 and 2; enough cells	0.94	6336	inactive
YY1	0.8	migration z between -2 and 2; enough cells	0.96	6516	inactive
RTL8C	-2.56	migration z below -2; enough cells	0.22	6102	active
CYP4F3	-0.47	migration z between -2 and 2; enough cells	0.72	5522	inactive
USP33	0.02	migration z between -2 and 2; enough cells	0.81	5584	inactive
GSN	-0.55	migration z between -2 and 2; enough cells	0.74	3938	inactive
